These are yes or no findings as the source states them, for the method shown. Binding seen in cells or lysates may run through a third protein. A result given as binding can be weak or reduced; the word gives no strength.
Columns and labels:
[1] = molecular target: protein phosphatase 2 (PP2A) (human (endogenous in SK-N-SH APPwt)) (UniProt P67775); experiment: co-IP; lysate (around 500 ug) of P.g-LPS treated SK-N-SH APPwt cells, pre-cleared with control IgG; 2 ug anti-Cofilin 2 or anti-PP2A antibody, protein A/G PLUS-agarose, 4°C, washed five times with RIPA buffer; Western blot of the other protein; IgG control
[2] = molecular target: Cofilin 2 (human (endogenous in SK-N-SH APPwt)) (UniProt Q9Y281); experiment: as above

Amino acid sequences for entries named in this document (tags omitted). A change or cut given only in a name is not applied to a line headed by its entry.
UniProt P67775: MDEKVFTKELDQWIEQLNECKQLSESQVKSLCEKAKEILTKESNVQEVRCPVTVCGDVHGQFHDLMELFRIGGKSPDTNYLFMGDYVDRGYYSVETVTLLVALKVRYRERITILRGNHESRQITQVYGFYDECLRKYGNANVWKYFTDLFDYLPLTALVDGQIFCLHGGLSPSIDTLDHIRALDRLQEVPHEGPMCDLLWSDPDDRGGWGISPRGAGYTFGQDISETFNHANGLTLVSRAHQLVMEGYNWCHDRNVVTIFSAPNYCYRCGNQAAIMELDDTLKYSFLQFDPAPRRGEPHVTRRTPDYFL
UniProt Q9Y281: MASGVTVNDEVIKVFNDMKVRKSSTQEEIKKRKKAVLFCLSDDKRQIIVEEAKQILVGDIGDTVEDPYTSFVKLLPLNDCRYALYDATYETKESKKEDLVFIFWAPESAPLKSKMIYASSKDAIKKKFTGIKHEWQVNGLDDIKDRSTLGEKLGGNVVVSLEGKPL

Substance | binding [1] | binding [2]
Cofilin 2 (from UniProt Q9Y281 1-166) | binds | –
protein phosphatase 2 (PP2A) (from UniProt P67775) (enzyme) | – | binds

— PMC8514664
